The experiment is described as follows: qHTS Assay for Lipid Storage Modulators in Drosophila S3 Cells.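 On cell number change: cells counted by Cell Tracker Red CMTPX staining in the red channel.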 The following applies: BODIPY lipid droplet fluorescence, 18-24 h; for cell number change: measured here: cell count max response, cells fed with added oleic acid. An outline of the steps: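 Drosophila S3 cells got compounds at several concentrations plus oleic acid (400 uM solution). Laser-scanning cytometry with 488 nm excitation read lipid droplets at 500-530 nm and cells at 575-640 nm. Percent activity was relative to 20 uM Triacsin C.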
A general note: qHTS replaces the single test concentration by a dilution series.

Setting [1] is: measured here: lipid fluorescence (Fed channel) AC50, cells fed with added oleic acid.
[2] abbreviates: measured here: cell number channel AC50, cells fed with added oleic acid.

Each structure is given as a SMILES string. Some of the results follow. Shown are side measurements of this screen, not its main read-out; they come without a call. Compounds called inactive in the main read-out are mostly missing here. Words in brackets tell the shape of the fitted curve; partial curves, single points and poor fits give uncertain potencies.

`CCCc1cc(=O)[nH]c(SC(C)C(=O)Nc2ccc3c(c2)OCCO3)n1` (stereo not given): the cell number change was -15.7%. The AC50 under setting [1] was 18.4 µM [rising, partial curve].

Consider `O=C(NCc1ccco1)C1CCC(CNS(=O)(=O)c2cccc3cccnc23)CC1` (stereo not given), for which the AC50 by setting is: under setting [2], 0.206 µM [rising, full curve, poor fit]; under setting [1], 29.1 µM [rising, single point].

As for `CCCCN(C(=O)c1cc2c(s1)CCC2)c1c(N)n(CC(C)C)c(=O)[nH]c1=O`, the cell number change was 21.6%.

For the compound `CCOC(=O)c1cnn(-c2ccc(Cl)cc2)c1C1CCN(C(=O)OC(C)(C)C)CC1`, the cell number change was 4.49%. Besides, the AC50 under setting [2] was 1.3 µM [rising, partial curve]. For the same compound, under setting [1], the AC50 was 29.1 µM [rising, partial curve].

On to `COc1ccc(S(=O)(=O)N2CCN(Cc3cccc(OC)c3)CC2)cc1`, for which the cell number change was 1.57%. For the same compound, under setting [1], the AC50 is 29.1 µM [rising, single point].

`O=c1oc2ccccc2cc1-c1csc(Nc2ccc(O)cc2)n1`: the cell number change was -45.8%.

`CCOc1ccc(C(=O)CCC(=O)N(CC)CC(=O)Nc2c(F)cccc2F)cc1`: the cell number change came out at 50%. Further, under setting [2], the AC50 was 0.206 µM [rising, full curve]. The AC50 under setting [1] was 29.1 µM [falling, single point].

For the compound `CCOc1ccc(CN(C)CC(=O)Nc2ccccc2C(=O)NC2CC2)cc1`, the cell number change was -25%. Besides, the AC50 under setting [2] is 0.00411 µM [falling, full curve, poor fit].

In the case of `CCCn1c(N)c(C(=O)CSc2nc(C)cs2)c(=O)n(C)c1=O`, the cell number change was -15.6%. Besides, under setting [1], the half-maximal activity concentration (AC50) was 16.4 µM [falling, single point].

For `NC(=O)C1CCN(c2oc(/C=C/c3ccc(F)cc3)nc2S(=O)(=O)c2ccccc2)CC1`, the cell number change was -7.41%. Besides, the AC50 under setting [2] was 1.64 µM [falling, partial curve].

Take `CC(C)CC(Nc1ncnc2scc(-c3ccccc3)c12)C(=O)O` (stereo not given): the cell number change was 19.2%.

Take `O=C(COC(=O)C1CCCCC1)Nc1ccc([N+](=O)[O-])cc1`: the cell number change was -16.8%. Besides, the AC50 under setting [2] is 0.82 µM [falling, full curve]. Besides, under setting [1], the AC50 is 0.517 µM [falling, full curve].

Regarding `CCOC(=O)Cn1nc(-c2ccc(Cl)cc2)ccc1=O`, the cell number change came to 19.5%.

On to `CC(=O)c1c(C)[nH]c(-c2ccccc2)c1C`, for which the cell number change is 36.4%. In addition, the AC50 under setting [2] was 29.1 µM [rising, single point].

Take `Cc1ccc(C(=O)NCC(=O)NC2CCC(C)CC2)s1` (stereo not given): the cell number change is -0.735%. The AC50 under setting [1] was 20.6 µM [rising, partial curve].

As for `S=C(NCC1CCCO1)N1CCN(c2nc(-c3ccc(Cl)cc3)cs2)CC1` (stereo not given), the cell number change was -14.7%. Moreover, the AC50 under setting [1] was 13 µM [falling, partial curve, poor fit].

Take `COc1ccc(OCc2cc(C(=O)NC3CCOCC3)no2)c2ccccc12`: the cell number change was -5.66%. Moreover, the AC50 under setting [1] is 20.6 µM [rising, single point].

Take `CCc1cccc(C)c1NC(=O)C1CCCO1` (stereo not given): the cell number change was 2.61%. Also, the AC50 under setting [1] was 0.517 µM [rising, full curve].

For `Nc1c(C(=O)NCc2cccnc2)sc(=S)n1-c1ccccc1`, the cell number change was -5.78%. Moreover, the AC50 under setting [1] was 2.06 µM [rising, single point].

Turning to `O=C(CSc1nncn1-c1ccccc1)Nc1ccccc1F`, the cell number change was 12.2%. Also, the AC50 under setting [1] was 0.206 µM [rising, single point].

Regarding `Cc1cccc(C)c1NC(=O)CSc1nnc(-c2ccoc2C)n1C`, the cell number change stood at 5.12%. In addition, under setting [2], the concentration at half-maximal activity (AC50) was 2.31 µM [rising, partial curve, poor fit].

For `CCCCNC(=O)CCn1c(=O)c2ccccc2n(Cc2ccc(Cl)cc2)c1=O`, under setting [2], the AC50 is 0.146 µM [rising, full curve, poor fit].

For the compound `CC(=O)Nc1ccc(/C=N/NC(=S)NC(C)C)cc1`, the cell number change turned out to be 32.5%. The half-maximal activity concentration (AC50) under setting [1] was 11.6 µM [rising, partial curve].

For the compound `O=C(Nc1ccc(-c2nc3ccccc3o2)c(O)c1)c1cc(-n2cnnc2)ccc1Cl`, the cell number change is -54%. Moreover, under setting [2], the AC50 was 29.1 µM [falling, single point]. Further, the AC50 under setting [1] was 29.1 µM [falling, single point].

Consider `CCN(CC)S(=O)(=O)c1ccc(NC(=O)C(OC)c2ccccc2)cc1` (stereo not given), for which the cell number change was 0.272%. Also, under setting [1], the AC50 was 32.6 µM [rising, single point].

As to `Cc1cc(=O)oc(C)c1C(=O)NCC1COc2ccccc2O1` (stereo not given), the cell number change is -1.37%. Besides, under setting [2], the AC50 was 7.31 µM [rising, single point]. Besides, the AC50 under setting [1] is 3.26 µM [rising, full curve, poor fit].

`O=S(=O)(NCCSc1nnnn1-c1ccccc1)c1cccs1`: the AC50 under setting [1] was 1.84 µM [falling, partial curve, poor fit].

On to `COc1ccc(C(=O)Nc2cc(OC)c(NC(=O)c3ccco3)cc2OC)cc1`, for which the cell number change was found to be 7.64%. In addition, under setting [2], the AC50 is 0.731 µM [rising, full curve]. Further, under setting [1], the AC50 is 3.66 µM [falling, single point].

Regarding `COc1ccc(/C=N/NC(=O)c2ccn[nH]2)cc1COc1ccc(Cl)cc1Cl`, the cell number change is -7.09%. Also, under setting [1], the AC50 is 0.92 µM [rising, full curve, poor fit].

Turning to `C1=Nc2ccccc2CN1c1ccccc1`, the cell number change is -11.1%. The AC50 under setting [1] is 0.517 µM [rising, single point].

As for `Cn1cccc1C(=O)OCC(=O)Nc1ccc2c(c1)OCO2`, the cell number change was 23.2%. The AC50 under setting [1] was 29.1 µM [rising, single point].

As for `Cc1cc(C)c(S(=O)(=O)NCC(=O)NCc2ccccn2)c(C)c1`, the AC50 under setting [1] is 2.24 µM [falling, partial curve].

Turning to `O=C(/C=C/c1ccccc1)Nc1ccc(CN2CCOCC2)cc1`, the cell number change stood at 12.2%. Further, the AC50 under setting [1] was 29.1 µM [rising, single point].

As for `COc1ccc(C(=O)COC(=O)c2ccc(Cl)nc2)c(OC)c1`, the cell number change stood at 15%.

With `Cn1nc(C(C)(C)C)cc1C(=O)NCc1ccc(N2CCCC2=O)cc1`, the cell number change is -51.6%. The AC50 under setting [2] is 2.06 µM [falling, full curve].

Consider `O=C(O)c1cccc(S(=O)(=O)NCCC(c2ccccc2)c2ccccc2)c1`, for which the AC50 under setting [1] was 0.184 µM [rising, full curve].

For the compound `CCN(CC)c1ccc(C(=O)N/N=C(\C)c2ccc(O)cc2)cc1`, the cell number change is 54.2%. Also, the AC50 under setting [2] was 0.00651 µM [rising, full curve, poor fit]. Under setting [1], the AC50 was 32.6 µM [rising, partial curve, poor fit].

For the compound `CC1CC(C)CN(C(=O)C2CCCN(c3ncnc4c3nc3n4CCCCC3)C2)C1` (stereo not given), the AC50 by setting is: under setting [2], 3.66 µM [falling, single point]; under setting [1], 0.58 µM [falling, single point].

As for `COc1ccc(NC(=O)CN(C)C(=O)CN2C(=O)NC3(CCCCC3)C2=O)cc1`, the cell number change stood at 7.03%.

Take `CCN(CC)S(=O)(=O)c1cccc(NC(=O)COC(=O)c2n[nH]c(=O)c3ccccc23)c1`: the cell number change amounted to 23.7%.

Regarding `COC(=O)c1ccccc1NC(=O)c1ccco1`, the cell number change was found to be 74%. In addition, the AC50 under setting [2] is 6.51 µM [rising, full curve]. The AC50 under setting [1] was 20.6 µM [rising, single point].

On to `COC(=O)C(=C/C=C/N1CCOCC1)C(=O)OC`, for which the cell number change is -18.8%. In addition, the AC50 under setting [2] is 6.51 µM [rising, single point]. Besides, the AC50 under setting [1] is 20.6 µM [falling, single point].

As to `O=C(CSc1nnc(-c2ccco2)o1)NC1CC2CCC1C2` (stereo not given), the AC50 under setting [2] is 6.51 µM [rising, single point].

As to `O=C1CCCc2ccccc2N1Cc1ccccc1`, the cell number change came out at 23.1%. Further, under setting [1], the AC50 was 0.103 µM [falling, single point].

In the case of `O=C(Nc1ccn(Cc2c(F)c(F)c(F)c(F)c2F)n1)c1ccc(COc2ccccc2Cl)cc1`, the cell number change was determined as 24.7%.

Regarding `CCCC(=O)Nc1cc(OCC)c(NC(=O)NC2CCCCC2)cc1OCC`, the cell number change was 29%. The AC50 under setting [2] was 0.184 µM [rising, full curve, poor fit].

In the case of `Cc1ccc2nc(NCc3ccccc3)c(C=O)c(=O)n2c1`, the cell number change came out at 13%. In addition, the AC50 under setting [1] was 0.326 µM [rising, full curve, poor fit].

On to `Cc1ncc([N+](=O)[O-])n1Cc1ccc(Br)cc1`, for which the cell number change stood at 90.1%. Moreover, the AC50 under setting [2] was 23.1 µM [rising, partial curve].

Turning to `O=C(NC1CC1)c1ccc2c(c1)NC(=O)c1ccccc1S2`, the cell number change is -47.1%. In addition, the AC50 under setting [2] is 29.1 µM [falling, single point]. Besides, the AC50 under setting [1] was 0.092 µM [falling, full curve, poor fit].

On to `CC12CCC3c4ccc(O)cc4CCC3C1CC(O)C2O` (stereo not given), for which the cell number change was -33.5%.

In the case of `O=C(CCN1C(=O)/C(=C/c2ccccc2Cl)SC1=S)NC1C=CS(=O)(=O)C1` (stereo not given), the cell number change came out at 1.15%. The AC50 under setting [1] is 29.1 µM [rising, single point].

For the compound `CN(c1ccccc1C(=O)N1CCN(c2ccccc2F)CC1)S(=O)(=O)c1ccccc1`, the cell number change was determined as 1.16%. The AC50 under setting [1] is 0.184 µM [rising, full curve, poor fit].

Regarding `Cc1cc(C)c2nc(N(CCCN(C)C)C(=O)c3ccc4c(c3)OCCO4)sc2c1`, under setting [1], the half-maximal activity concentration (AC50) was 16.4 µM [falling, single point].

In the case of `CCCCCC(=O)Nc1ccc(C(=O)COC(=O)c2ccccn2)cc1`, the cell number change came to 1.79%. The AC50 under setting [1] was 0.461 µM [falling, single point].

In the case of `Cc1cc(C)n2nc(SCC(=O)N/N=C/c3ccccn3)nc2n1`, the cell number change turned out to be 13.4%. Moreover, the AC50 under setting [1] was 10.3 µM [rising, single point].

Turning to `O=C1c2ccccc2C(=O)c2cc(S(=O)(=O)Nc3ccccc3)ccc21`, the cell number change is -0.74%. For the same compound, under setting [1], the AC50 is 29.1 µM [rising, single point].

For `C[C@@H](C(=O)Nc1ccc2ccccc2c1)[C@H]1C[C@]1(C)[C@H](NS(=O)(=O)c1ccc(-c2ccccc2)cc1)c1ccccc1`, the cell number change is -0.42%. The AC50 under setting [1] is 7.31 µM [rising, partial curve].

`CN1C(=O)/C(=C2\SC(=S)N(NC(=O)c3cccnc3)C2=O)c2ccccc21`: the cell number change stood at 5.96%. Moreover, the AC50 under setting [1] is 29.1 µM [falling, single point].

As to `CCCCCCNC(=O)c1c(O)c2cccc3c2n(c1=O)CCC3`, the cell number change stood at 16.1%. Under setting [2], the concentration at half-maximal activity (AC50) is 1.46 µM [rising, partial curve, poor fit]. In addition, the AC50 under setting [1] was 0.82 µM [rising, partial curve, poor fit].

Consider `O=C1CCCCN1CC(=O)N1CCCC(N2CCN(c3ccccc3F)CC2)C1` (stereo not given), for which the cell number change was found to be 8.02%.

The term AC50 denotes the midpoint of the concentration-response curve, whichever way the signal moves.

Values taken from PubChem BioAssay AID2685 (National Center for Advancing Translational Sciences (NCATS), 2010).
